Experimental data published in PubChem BioAssay AID485314 (National Center for Advancing Translational Sciences (NCATS), 2010).
The campaign covered roughly 340,000 compounds. About 4,500 (1.3%) were called active. The inconclusive results got no clear call from the source; some entries with a clear call stand among them for comparison. The call rests on the fitted dose curve; in most records, active means well fitted inhibition curve with a large enough effect; inconclusive means small, poorly fitted or top-dose-only effect, or another doubt; inactive means no such curve, though single readings can be large or run the other way. A potency beside an inconclusive call is a rough fit, not a confirmed value.

Target: DNA polymerase beta (Homo sapiens) (UniProt P06746)
Experiment: qHTS Assay for Inhibitors of DNA Polymerase Beta
Details: Pol beta primer extension/strand displacement, fluorescence kinetic; activity change, negative = inhibition: at 114 µM (top of the series)
Method in brief: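 Enzyme-only controls used 10 nM Pol beta; buffer lacking enzyme served as negative control. Compound preincubated 15 min, then 50 nM substrate added; 0 and 10 min reads at room temperature.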
On the % scale 0 is the no-effect control and ±100 the full control effect; potency means the concentration at half of the fitted maximal effect.

Row | SMILES | activity change, negative = inhibition | Potency
1 | CC(C)CC(=O)NC1(C(F)(F)F)C(=O)Nc2c1c(=O)[nH]c(=O)n2-c1ccccc1 (stereo not drawn) | inactive: 15.4% | 
2 | COc1ccc(C(=O)Cn2nnc(-c3cccs3)n2)cc1 |  | inconclusive: 0.282 µM [inhibitor, full curve, poor fit]
3 | C=CCN(CC=C)c1cnn(-c2nc3ccccc3[nH]2)c(=O)c1Cl |  | active: 0.224 µM
4 | N#C/C(=C(/O)CCl)c1nc2ccccc2[nH]1 |  | inconclusive: 31.6 µM [inhibitor, partial curve]
5 | COc1ccc(/C=N/NC(=O)c2nn(-c3ccccc3)c(=O)c3c(N)scc23)cc1 |  | inconclusive: 56.2 µM [inhibitor, partial curve]
6 | CCCCCCCCCCC/C=C\C(C)(C)/C=C\CCCC(=O)O |  | active: 31.6 µM
7 | COc1cc(C(C)=O)ccc1OCc1nnc(-c2ccccc2Br)o1 |  | inconclusive: 28.2 µM [inhibitor, full curve]
8 | COc1ccccc1N1CC(C(=O)Nc2ccc3c(c2)OCO3)CC1=O (stereo not drawn) |  | inconclusive: 11.2 µM [inhibitor, full curve, poor fit]
9 | O=C(CCSc1ccccc1)NCCSCc1ccco1 |  | inconclusive: 39.8 µM [inhibitor, single point]
10 | Cn1c(-n2cccc2)c(-c2c(-c3ccccc3)[nH]c3c2c(=O)n(C)c(=O)n3C)c(=O)n(C)c1=O | inactive: 4.86% | 
11 | CCc1ccc(/C=C2\SC(=S)N(CCC(=O)Nc3cc(C)on3)C2=O)cc1 |  | inconclusive: 39.8 µM [inhibitor, full curve, poor fit]
12 | Cc1ccc(Cl)cc1Nc1nc(-c2sc(NC(=O)c3ccco3)nc2C)cs1 |  | inconclusive: 11.2 µM [inhibitor, partial curve, poor fit]
13 | COc1ccc(N(C(C)=O)c2nc3ccccc3[nH]2)cc1 |  | inconclusive: 8.91 µM [inhibitor, partial curve]
14 | CN1C(=O)c2cccc3c(Cl)ccc(c23)C1=O | inactive: -0.399% | 
15 | COc1ccc(OCc2nc3c4c(-c5ccccc5)c(-c5ccccc5)oc4ncn3n2)cc1 | inactive: 54.8% | 
16 | COC(=O)c1cc2c(cc1NC(=O)c1cnn(-c3ccc(C)cc3)c1-n1cccc1)OCO2 |  | inconclusive: 89.1 µM [inhibitor, single point]
17 | COc1ccccc1NC(=O)CSc1nc2ccccc2c2nc(-c3ccccc3)nn12 |  | inconclusive: 100 µM [inhibitor, single point]
18 | Cn1cnnc1SCC(=O)Nc1ccc(OCc2ccccc2)cc1 |  | inconclusive: 28.2 µM [inhibitor, full curve, poor fit]
19 | O=C(O)c1ccc(-n2c(/C=C\c3ccc(O)cc3)nc3ccccc3c2=O)cc1 | inactive: -4.1% | 
20 | CC(C)Cc1nc2sc3c(=O)[nH]cnc3c2c2c1CCCC2 |  | inconclusive: 3.98 µM [inhibitor, single point]
21 | Cc1ccc(C)c(NC(=O)CSc2c3c(nc4ccc(Cl)cc24)CCCC3)c1 |  | inconclusive: 56.2 µM [inhibitor, partial curve]
22 | COc1ccc(C(=O)Nc2cccc(OCc3cc(=O)n4c5c(sc4n3)CCCC5)c2)cc1 | inactive: -1.24% | 
23 | CC(C)COc1ccc(CNC(=S)Nc2ccccc2)cc1Cl | inactive: -17.1% | 

Gathered by group, those above with a COOH group
Row | SMILES | activity change, negative = inhibition | Potency
6 | CCCCCCCCCCC/C=C\C(C)(C)/C=C\CCCC(=O)O |  | active: 31.6 µM
19 | O=C(O)c1ccc(-n2c(/C=C\c3ccc(O)cc3)nc3ccccc3c2=O)cc1 | inactive: -4.1% | 

The listing continues:

Row | SMILES | activity change, negative = inhibition | Potency
24 | O=C(NNc1nc2ccccc2s1)c1ccc(F)cc1 | inactive: 57.1% | 
25 | CCn1c2ccccc2c2cc(/C=N/n3c(-c4cc(C)[nH]n4)n[nH]c3=S)ccc21 |  | active: 50.1 µM
26 | O=C1c2ccccc2C2(c3ccccc3)NCCN12 (stereo not drawn) |  | inconclusive: 0.251 µM [inhibitor, full curve, poor fit]
27 | CC(=O)c1cn(CC(=O)Nc2ccc(C)cc2C)c2ccccc12 |  | inconclusive: 79.4 µM [inhibitor, partial curve]
28 | CCN(CC)CCNC(=O)c1c(C)n(-c2ccccc2)c2cc(Br)c(OC)cc12 |  | inconclusive: 5.01 µM [inhibitor, full curve, poor fit]
29 | COC(=O)c1ccc(C(=O)OC)c(NC(=S)N2CCN(c3ccccn3)CC2)c1 |  | inconclusive: 39.8 µM [inhibitor, single point]
30 | CCc1cc(=O)oc2c3c(cc(OCC(=O)NCc4ccccn4)c12)OC(C)(C)CC3 |  | inconclusive: 8.91 µM [inhibitor, full curve]
31 | Cc1onc(-c2ccccc2Cl)c1C(=O)Oc1cccc2cccnc12 | inactive: 1.17% | 
32 | O=[N+]([O-])c1ccc2oc(C(O)c3cccc(Cl)c3)cc2c1 (stereo not drawn) |  | inconclusive: 89.1 µM [inhibitor, single point]
33 | Cc1cc(O)c(C(=O)/C=C/c2c(F)c(F)c(F)c(F)c2F)c(=O)o1 |  | inconclusive: 31.6 µM [inhibitor, single point]
34 | COC(=O)C1=C(c2ccccc2)c2ccccc2S(=O)(=O)N1CC(=O)Nc1ccc(F)c(F)c1 | inactive: -12% | 
35 | CCOc1ccc(-c2nc(Cn3c(=O)cc(-c4ccccc4)c4c(C)nn(C)c43)c(C)o2)cc1 | inactive: 13.5% | 
36 | COC1=CC(=Cc2c(N)n3nc(CC(=O)N4CCOCC4)sc3nc2=O)C=C(OC)C1=O | inconclusive: -37.5% [inhibitor] | 
37 | O=C1CC(c2ccco2)CC(O)=C1C=Nc1cc(Cl)ccc1Cl (stereo not drawn) |  | active: 39.8 µM
38 | Oc1ccc2ccccc2c1C1Nc2cccc3cccc(c23)N1 |  | inconclusive: 0.398 µM [inhibitor, partial curve, poor fit]
39 | O=C(CCC(=O)c1cccs1)c1cccs1 |  | inconclusive: 100 µM [inhibitor, single point]
40 | CCOc1ccc(N=C2NC(=O)C(CC(=O)Nc3ccc(OC)cc3)S2)cc1 (stereo not drawn) |  | inconclusive: 89.1 µM [inhibitor, single point]
41 | O=C(NCCc1ccccc1)C1CCC(CNS(=O)(=O)c2ccccc2)CC1 (stereo not drawn) |  | inconclusive: 89.1 µM [inhibitor, single point]
42 | COc1cccc(CN(C(=O)/C=C/c2ccc(Cl)cc2)C2CCS(=O)(=O)C2)c1 (stereo not drawn) |  | inconclusive: 89.1 µM [inhibitor, single point]
43 | CCCN1C(=O)CC(c2ccco2)Sc2ccccc21 (stereo not drawn) |  | inconclusive: 22.4 µM [inhibitor, partial curve]
44 | CNC(=S)N1N=C(c2ccc(Br)cc2)CC1c1ccc(OC)cc1 (stereo not drawn) |  | inconclusive: 50.1 µM [inhibitor, partial curve]
45 | CCCOc1ccc(-c2c(C(=O)N/N=C(\C)c3cccs3)nnn2-c2nonc2N)cc1 |  | inconclusive: 89.1 µM [inhibitor, single point]
46 | Cc1cnn(C(=S)NCC2CCCO2)c1 (stereo not drawn) |  | inconclusive: 0.112 µM [inhibitor, full curve, poor fit]

Look-ups from the results shown.
CCCOc1ccc(-c2c(C(=O)N/N=C(\C)c3cccs3)nnn2-c2nonc2N)cc1 – Potency: inconclusive: 89.1 µM [inhibitor, single point]
CCOc1ccc(-c2nc(Cn3c(=O)cc(-c4ccccc4)c4c(C)nn(C)c43)c(C)o2)cc1 – activity change, negative = inhibition: inactive: 13.5%

Next part:

Row | SMILES | activity change, negative = inhibition | Potency
47 | COc1cccc(S(=O)(=O)N2CCN(Cc3ccc4c(c3)OCO4)CC2)c1 |  | inconclusive: 89.1 µM [inhibitor, single point]
48 | CCOC(=O)COc1ccc2c(=O)c(-c3ccccc3OC)coc2c1 |  | inconclusive: 50.1 µM [inhibitor, partial curve]
49 | COCCCNC(=O)/C(C#N)=C/c1ccc(OCC(=O)O)c(OC)c1 |  | active: 3.55 µM
50 | CCC(C(=O)NC1CCCCC1)N(Cc1cccs1)C(=O)c1snc(C(N)=O)c1N (stereo not drawn) |  | inconclusive: 31.6 µM [inhibitor, single point]
51 | O=C(CCN1C(=O)COc2ccccc21)NCCN1CCN(c2ccccc2F)CC1 |  | inconclusive: 22.4 µM [inhibitor, partial curve, poor fit]
52 | Cc1ccc2nc(N/N=C/c3ccccc3C#N)nc(-c3ccccc3)c2c1 |  | inconclusive: 4.47 µM [inhibitor, full curve, poor fit]
53 | CCOC(=O)c1c(NC(=O)CSc2nnc(C)c(=O)[nH]2)sc(C)c1C |  | inconclusive: 100 µM [inhibitor, single point]
54 | CC(C)(C)C(=O)Nc1ccc(C(=O)Nc2cccc(Oc3ccc(C(=O)O)c(C(=O)O)c3)c2)cc1 | inactive: -2.09% | 
55 | CN1C(=O)/C(=C/c2coc3ccc(O)cc3c2=O)SC1=S | inactive: -3.4% | 
56 | O=C(Nc1ccc(Oc2ccccc2)cc1)c1ccc(Cn2c(=O)[nH]c3ccsc3c2=O)cc1 |  | inconclusive: 89.1 µM [inhibitor, single point]
57 | COc1cccc(OCCOc2cccc(/C=N/n3cnnc3)c2)c1 |  | inconclusive: 0.141 µM [inhibitor, full curve, poor fit]
58 | COc1c(C(O)CC(C)C)ccc2c1C(=O)OCc1cc(C)cc(O)c1O2 (stereo not drawn) |  | inconclusive: 25.1 µM [inhibitor, full curve]
59 | Cc1cccnc1Nc1nc(-c2ccc(O)c(O)c2)cs1 |  | inconclusive: 50.1 µM [inhibitor, partial curve]
60 | Cc1nc2nc(SCC(=O)NCCc3ccccc3)nn2c(C)c1Cc1c(F)cccc1Cl | inactive: 9.59% | 
61 | COc1cccc(/C=N/Nc2ncnc3c2[nH]c2ccc(C)cc23)c1OC | inconclusive: -96.1% [inhibitor] | 
62 | O=C(OCc1nc2ccccc2s1)C1CCN(S(=O)(=O)c2cccs2)CC1 |  | inconclusive: 20 µM [inhibitor, partial curve, poor fit]
63 | CC(C)c1ccc(S(=O)(=O)/N=C2/C=C(Sc3ncn[nH]3)C(=O)c3ccccc32)cc1 |  | active: 22.4 µM
64 | COc1ccc(N2Cc3ccc(C(=O)N/N=C\c4ccc(O)cc4O)cc3C2)cc1 |  | inconclusive: 15.8 µM [inhibitor, partial curve]
65 | N=c1oc2cc(O)ccc2cc1C(=O)Nc1ccccn1 |  | inconclusive: 7.08 µM [inhibitor, partial curve, poor fit]
66 | CC1=C(C(=O)Nc2ccc(CC(=O)NCc3ccccc3C)cc2)SCCO1 | inactive: 5.37% | 
67 | CCCC(=O)OCCNc1cc(Sc2nccn2C)c2nonc2c1[N+](=O)[O-] | inactive: 19.1% | 
68 | Cc1cc(C)cc(C(=O)NC2CC(C)(C)NC(C)(C)C2)c1 |  | inconclusive: 56.2 µM [inhibitor, partial curve]

A second format for part of the listing above:
O=C(CCC(=O)c1cccs1)c1cccs1
  Potency: inconclusive: 100 µM [inhibitor, single point]
COc1ccc(N2Cc3ccc(C(=O)N/N=C\c4ccc(O)cc4O)cc3C2)cc1
  Potency: inconclusive: 15.8 µM [inhibitor, partial curve]
